Laboratory results: patent publication US20120014870A1 (FORERUNNER PHARMA RESEARCH, published 2012)

Experiments:
[1] = target: mouse LGR7 expressed on BaF3 cells (HA-mLGR7/BaF3) (mouse); assay: FACS analysis of HA-mLGR7/BaF3 (geometric mean values)
[2] = target: mouse LGR7 expressed on BaF3 cells (HA-mLGR7/BaF3) (mouse); assay: flow cytometry on HA-mLGR7/BaF3 cells

Row | binding [1] | binding [2] | Binder
1 | binds | binds | 22DA17 (antibody, IgG2b, V domains shown, Mouse hybridoma antibody, isotype IgG2b; also called Bio-22DA17 (biotinylated form)) VH: QVQLQQSGAELVRPGVSVKLSCKASGYSLTTYWMNWVKQRPGQGLEWIGMIHPSDSETVINQKFKDKATLTVDKSSSTAYMQLSSPTSEDSAVYYCARWDYDYYFDYWGQGTTLTVSS VL: DVLMTQTPLSLPVSLGDQASISCRSSQSIVHSNGNTYLEWYLQKPGQSPNLLIYKVSNRFSGVPDRFSGSGSGTDFTLKISRVEAEDLGVYYCFQGSHVPFTFGSGTKLEIK
2 | binds | binds | 22DA23 (antibody, IgG1, V domains shown, Mouse hybridoma antibody, isotype IgG1; also called anti-human LGR7 monoclonal antibody 22DA23) VH: EIQLQQSRPELVRPGASVKVSCQASGYAFTNYNMYWVKQSHGKSLEWIGYIDPYNDDTTYNQKFKGKATLTVDKSSSTAYMHLNSLTSEDSAVFYCARFRLGYYAMDYWGQGASVTVSS VL: DIVLTQSPASLAVSLGQRATISCKASQSVDYDLDSYMNWYQQKPGQPPKLLIYVASNLESGIPARFSGSGSGTDFTLNIHPVEEEDAATYYCQQSNEDPFTFGSGTKLEIK

No constants are given. Whether binding was seen depends on the method and setting. Binding can be weak; no strength is given.
